Each number is a percent effect as filed. How 0% and 100% were set is not recorded. Most values in the screen are low, and negative values occur. This is an unselected part of the compounds tested. Two or more numbers in one place are separate tests of the same structure; such repeats can differ widely.

A: 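Whole-cell growth test on Mycobacterium tuberculosis, read after 4 days in a medium based on cholesterol and the lipid DPPC; the read-out is not stated. Tested at 50 µM. Higher reads as more growth inhibition (inferred: compounds with an IC50 in retests scored well above the rest). Of about 69,000 compounds tested this way, about 370 (0.54%) reached 50% or more in at least one test.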
B: 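Whole-cell growth test on Mycobacterium tuberculosis, read after 3 days in glucose-containing 7H9 medium; the read-out is not stated. Compounds at 50 µM. Direction is inferred from retests: higher values go with more growth inhibition. Of about 69,000 compounds tested this way, about 760 (1.1%) reached 50% or more in at least one test.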

CCOC(=O)C1CCN(c2cc(C(=O)N3CCCCC3)nc(C)n2)CC1 gave A: 3.542%; B: 12.13%.
CCN(C)c1ccc(C(=O)N(CCOC)Cc2ccccn2)cc1 gave A: -17.66%; B: 4.51%.
CC(C)Nc1cc(N2CCN(Cc3ccccc3)C(CCO)C2)ncn1 (stereo not given) gave A: -2.045%; B: 13.03% & 3.182%.
COc1cccc(CNc2cccnc2-n2cccn2)c1OC gave A: 14.19%; B: 17.31% & 16.59%.
[H][C@]12CC[C@](O)(c3cccc(OC)c3)[C@@]1([H])CN(C(=O)c1ccn(C)n1)C2 gave A: -8.723% & 4.36%; B: 27.47%.
COCCOC[C@]1(CNC(=O)c2ccc(OC)cc2)C[C@@H](O)[C@@H](O)C1 gave A: -1.503%; B: -13.74% & -1.238%.
COCCN(C)CC(=O)N1CCCC2(CCC(=O)N(CC3CC3)C2)C1 (stereo not given) gave A: 5.909%; B: -1.544% & -9.106%.
CN(Cc1cccc(C(N)=O)c1)c1ncc(C(N)=O)cc1Cl gave A: -0.1002%; B: -4.719%.
N#Cc1ccc(CN2C(=O)c3ccccc3CS2(=O)=O)cc1 gave A: -4.671%; B: 2.788%.
CN(CCC#N)C(=O)CN1CCCC1c1cccs1 (stereo not given) gave A: 4.441%; B: 2.207%.
Cc1ccccc1C1(CNC(=O)c2cccc(S(C)(=O)=O)c2)CC1 gave A: -13.03%; B: -2.764%.
COCCC(=O)N1CCCC1c1nccc(C)n1 (stereo not given) gave A: -11.41%; B: 15.77%.
CN(C)C(=O)c1ccccc1NC(=O)N(C)Cc1ccccc1O gave A: 3.16% & -10.51%; B: -34.64%.
Cc1ccc(NC(=O)c2ncc(C(N)=O)cc2Cl)cc1F gave A: 3.098%; B: 78.71%.
CCC[C@]12CN3C[C@](CCC)(CN(C1)C3c1[nH]c(=O)[nH]c(=O)c1C)C2=O (stereo not given in full) gave A: -3.708%; B: 3.341%.
[H][C@]12CC[C@]([H])(CN(Cc3[nH]cnc3C)C1)N(C(=O)c1cnn(C)c1)C2 gave A: -27.33%; B: -56.18%.
COc1cccc(N2CCN(Cc3nccn3C(C)C)CC2=O)c1 gave A: -6.92%; B: -0.2846%.
Cl.c1ccc(-c2ccc(C3CNCCO3)nc2)cc1 (stereo not given) gave A: -3.129%; B: 13.48%.
CCOc1cc(CN(C)CCOC)ccc1OC(F)F gave A: -2.263%; B: -32.38%.
COc1ccc(C(C(=O)O)N2CCC(O)(c3cccnc3)CC2)cc1F (stereo not given) gave A: -17.22%; B: -25.18%.
CNc1cc(N2CCCC2CNCc2cscn2)ncn1 (stereo not given) gave A: 2.463%; B: -3.994%.
Cn1cnnc1C1CCCN(C(=O)c2cnc3ccccc3n2)C1 (stereo not given) gave A: 13.6%; B: -5.136%.
O=C(O)C(F)(F)F.[H][C@@]12CN(C(=O)c3occc3C)C[C@@]1([H])N(Cc1cccnc1)C(=O)CO2 gave A: -2.855%; B: -2.44%.
Cc1ccc(N2CCCC(NCc3ccc4c(c3)OCCO4)C2)nn1 (stereo not given) gave A: -12.76%; B: 16.19%.
O=c1c(CN2CCOCC2)coc(O)c1CN1CCOCC1 gave A: 7.026%; B: -5.808%.
O=C(O)C(F)(F)F.c1coc(CN2CCn3c(COCC4CC4)nnc3C2)c1 gave A: 4.134%; B: -5.954% & -8.097%.
Cc1ccc(C(=O)N2CCN(c3ccnc4ccsc34)CC2)o1 gave A: 6.51% & 10.06%; B: 35.58%.
CCCN(Cc1nccn1C)C(=O)c1cc(C)nc(C)n1 gave A: 23.03%; B: -1.725% & 9.532%.
O=C(NC1CCCC1)c1cnn2c(-c3ccco3)ccnc12 gave A: 22.85%; B: 52.1%.

The first 2 entries again:

structure,A,B
CCOC(=O)C1CCN(c2cc(C(=O)N3CCCCC3)nc(C)n2)CC1,3.542%,12.13%
CCN(C)c1ccc(C(=O)N(CCOC)Cc2ccccn2)cc1,-17.66%,4.51%

Data taken from ChEMBL document CHEMBL3988442, “University of Dundee, Small-Polar-MMV Screening Library” (2021).